Assay results from publication doi:10.1101/2024.06.18.599485.
Results are given in words; binding and its absence hold for the method and conditions named. In cells and extracts the contact can be indirect. Some results given as binding are weak or reduced against the parent protein; the word gives no strength.

Amino acid sequences for entries named in this document (tags omitted). A change or cut given only in a name is not applied to a line headed by its entry.
UniProt Q14738: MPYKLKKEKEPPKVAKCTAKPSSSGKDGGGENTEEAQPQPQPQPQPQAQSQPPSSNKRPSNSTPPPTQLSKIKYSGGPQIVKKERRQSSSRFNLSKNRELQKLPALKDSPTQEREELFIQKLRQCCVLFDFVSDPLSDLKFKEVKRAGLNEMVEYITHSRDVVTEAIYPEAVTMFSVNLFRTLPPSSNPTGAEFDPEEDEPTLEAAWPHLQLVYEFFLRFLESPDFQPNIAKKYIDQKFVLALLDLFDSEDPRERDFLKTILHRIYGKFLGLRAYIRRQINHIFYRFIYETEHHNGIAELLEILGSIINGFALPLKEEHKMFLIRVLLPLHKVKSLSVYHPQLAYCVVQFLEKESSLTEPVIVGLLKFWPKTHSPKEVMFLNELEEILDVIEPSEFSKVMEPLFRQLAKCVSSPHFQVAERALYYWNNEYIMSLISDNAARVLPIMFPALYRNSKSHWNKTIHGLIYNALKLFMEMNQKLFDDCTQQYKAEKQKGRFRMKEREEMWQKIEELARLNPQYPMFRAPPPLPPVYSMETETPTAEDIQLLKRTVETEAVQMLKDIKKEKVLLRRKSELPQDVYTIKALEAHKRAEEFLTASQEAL
UniProt Q13136: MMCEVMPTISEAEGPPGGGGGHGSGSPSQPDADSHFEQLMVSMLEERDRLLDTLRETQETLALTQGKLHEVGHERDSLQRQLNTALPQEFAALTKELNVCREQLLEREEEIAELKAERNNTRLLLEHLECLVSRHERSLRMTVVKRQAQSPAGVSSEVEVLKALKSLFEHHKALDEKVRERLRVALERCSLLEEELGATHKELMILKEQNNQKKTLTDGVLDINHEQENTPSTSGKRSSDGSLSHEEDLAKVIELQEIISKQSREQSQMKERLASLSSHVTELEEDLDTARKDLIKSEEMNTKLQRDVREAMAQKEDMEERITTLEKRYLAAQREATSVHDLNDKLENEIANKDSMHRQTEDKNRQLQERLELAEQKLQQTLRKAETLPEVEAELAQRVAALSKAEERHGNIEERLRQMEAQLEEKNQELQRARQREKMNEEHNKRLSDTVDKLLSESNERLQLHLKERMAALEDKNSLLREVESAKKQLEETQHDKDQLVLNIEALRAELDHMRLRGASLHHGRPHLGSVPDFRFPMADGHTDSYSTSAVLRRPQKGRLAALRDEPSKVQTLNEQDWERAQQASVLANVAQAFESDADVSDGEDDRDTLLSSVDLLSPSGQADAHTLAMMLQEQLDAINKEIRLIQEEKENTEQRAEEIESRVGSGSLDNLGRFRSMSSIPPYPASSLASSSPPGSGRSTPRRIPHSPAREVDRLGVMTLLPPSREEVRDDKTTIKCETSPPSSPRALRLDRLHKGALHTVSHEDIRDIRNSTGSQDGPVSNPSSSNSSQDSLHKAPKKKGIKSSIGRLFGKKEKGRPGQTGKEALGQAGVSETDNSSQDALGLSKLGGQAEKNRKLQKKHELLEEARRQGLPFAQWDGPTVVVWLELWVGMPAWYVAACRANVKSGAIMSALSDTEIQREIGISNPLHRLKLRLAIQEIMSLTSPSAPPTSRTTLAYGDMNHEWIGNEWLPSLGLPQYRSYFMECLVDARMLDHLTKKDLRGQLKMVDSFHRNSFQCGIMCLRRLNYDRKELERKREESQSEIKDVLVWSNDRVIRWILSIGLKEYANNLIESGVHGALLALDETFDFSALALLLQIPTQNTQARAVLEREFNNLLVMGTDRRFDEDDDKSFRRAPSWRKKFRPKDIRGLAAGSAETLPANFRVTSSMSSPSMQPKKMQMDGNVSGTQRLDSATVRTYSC

These substances were tested against GFP-tagged B56δ (UniProt Q14738) (assay: co-IP).

Substance	binding
FLAG-tagged full-length liprin-α1 (WT) (from UniProt Q13136 1-1202)	binds
FLAG-tagged liprin-α1 Δ1-30 (from UniProt Q13136 31-1202) (domain or fragment)	binds
FLAG-tagged liprin-α1 Δ1-152 (from UniProt Q13136 153-1202) (domain or fragment)	no binding
FLAG-tagged liprin-α1 Δ1-180 (from UniProt Q13136 181-1202) (domain or fragment)	no binding
